# Some of the results follow. These are raw signals, not scaled to a control.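 In the initial screen, polymyxin B was used at a concentration that permeabilizes Salmonella's outer membrane but not its inner membrane. Maximum growth was set by DMSO wells with or without polymyxin B. Since plates varied, data were ranked per plate, and compounds giving the lowest OD600 advanced as hits.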
# Test system: Salmonella enterica serovar Typhimurium SL1344
# Experiment: bacterial growth OD600 after 18 h with compound and polymyxin B; higher = more bacterial growth (less inhibition)
# Conditions: 50 µM, Mueller-Hinton broth
Compound,bacterial growth OD600 (polymyxin B 0.75 µg/mL),bacterial growth OD600 (polymyxin B 1 µg/mL)
COC(=O)C1CCCCN1C(=O)c1c(OC)cc(=O)n2c1CCN(Cc1ccc(F)cc1F)CC2 (stereo not given),0.798,
COCCNC(=O)c1ccc(OC2CCN(CC3CC=CCC3)CC2)c(Cl)c1 (stereo not given),,0.971
COc1ccc(C(=O)C2CCCN(Cc3c(F)ccc(F)c3F)C2)c(OC)c1 (stereo not given),,0.801
CCOC(=O)C1CCCN(Cc2nc(Cc3cccc(F)c3)no2)C1 (stereo not given),,0.791
CCC1CCCCN1Cc1nc(Cc2ccccc2Cl)no1 (stereo not given),,0.83
CCN(CC1CCCO1)C(=O)CC1(c2ccccc2)CC(=O)N(CCCOc2cccnc2)C1=O (stereo not given),0.854,
CCOC(=O)C1CCCN(C(=O)c2coc(COc3cccc(F)c3F)n2)C1 (stereo not given),,0.848
CC(C)CC(=O)Nc1ccnn1C1CCN(Cc2c[nH]nc2-c2ccccc2)CC1,,0.826
COc1ccc(CN2CCC(n3nccc3NC(=O)C(C)(C)C)CC2)c(C)c1C,,0.919
O=C(NC1CCOCC1)c1ccc(OC2CCN(Cc3ccccn3)CC2)cc1,,0.917
COc1cccc(-c2nn(-c3ccccc3)cc2CN2CCCC2)c1,,1.1
CN1CCCC(CNC(=O)c2ccc(-c3ccccc3)cc2)C1 (stereo not given),0.691,
COCCN1CCCC2(CCN(C(=O)C(C)C)C2)C1=O (stereo not given),,0.935
Cc1ccc(OCc2cc(C(=O)NCC(C)(C)N3CCOCC3)no2)cn1,,0.855
COc1ccc(OC)c(CC(=O)NC2CCCN(C3Cc4ccccc4C3)C2)c1 (stereo not given),,1
O=C(CCC1(Cc2ccc(F)cc2)CCC(=O)N1)NCc1ccc(OC(F)(F)F)cc1 (stereo not given),0.003,
CN(Cc1ccncn1)C(=O)CC(c1cccc(O)c1)c1ccccc1Cl (stereo not given),,0.941
CCCCN(C)C(=O)c1nc2ccccn2c1CNCCc1nc2ccccc2n1C,,1.37
CCc1ccc(CN2CCCC(CNC(=O)COc3ccccc3OC)C2)cc1 (stereo not given),,0.921
Cc1ccsc1C(=O)N(C)CC1CCCN(CCc2ccc(Cl)cc2)C1 (stereo not given),,0.86

# One compound at a time (already shown):
# `O=C(NC1CCOCC1)c1ccc(OC2CCN(Cc3ccccn3)CC2)cc1` as listed: bacterial growth OD600 (polymyxin B 1 µg/mL): 0.917
# `CN(Cc1ccncn1)C(=O)CC(c1cccc(O)c1)c1ccccc1Cl` (stereo not given) as listed: bacterial growth OD600 (polymyxin B 1 µg/mL): 0.941
